PubChem BioAssay AID504774 | Drosophila RNAi Screening Center – 2011
Screen: 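Genes required for cells to withstand methyl methanesulphonate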 (primary screen). System: Drosophila Kc167 cells. Reagents: long dsRNA against Drosophila genes, about 0.25 µg dsRNA per well. Timing: about 6 days: 3 days knock-down, then 3 days with or without MMS. Conditions: methyl methanesulphonate 0.004% (w/v) for 3 days after knock-down. Detection: 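ATP-dependent luminescence as a measure of live cells in MMS-exposed wells, quantile normalised within each plate, with replicate values also given as a mean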. Scale: mean viability with MMS and viability with MMS: higher = more surviving cells after MMS.
The deposit covers about 23,000 reagents; this is an unselected part of those that have a named target and a result. 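Values are quantile-normalised luminescence on an arbitrary scale; higher means more cells surviving MMS.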 Further read-outs or replicates are left out here. No sequences are given here.

Ktch [DRSC15094] | mean viability with MMS: 3.61e6; viability with MMS, replicate 1: 4.03e6
Naa15-16 [DRSC19440] | mean viability with MMS: 1.96e6; viability with MMS, replicate 1: 4.10e6
Naa15-16 [DRSC22846] | mean viability with MMS: 3.58e6; viability with MMS, replicate 1: 4.04e6
bves [DRSC20520] | mean viability with MMS: 3.49e6; viability with MMS, replicate 1: 3.94e6
bves [DRSC20554] | mean viability with MMS: 3.59e6; viability with MMS, replicate 1: 3.96e6
bves [DRSC20555] | mean viability with MMS: 3.54e6; viability with MMS, replicate 1: 3.96e6
Mgat2 [DRSC16347] | mean viability with MMS: 3.56e6; viability with MMS, replicate 1: 4.05e6
CG17580 [DRSC06683] | mean viability with MMS: 3.61e6; viability with MMS, replicate 1: 3.73e6
CG13126 [DRSC02222] | mean viability with MMS: 3.41e6; viability with MMS, replicate 1: 3.78e6
mRNA-cap [DRSC19789] | mean viability with MMS: 3.23e6; viability with MMS, replicate 1: 3.59e6
CG10943 [DRSC09805] | mean viability with MMS: 3.66e6; viability with MMS, replicate 1: 4.24e6

Copied from above for reference:
Naa15-16 [DRSC19440] | mean viability with MMS: 1.96e6; viability with MMS, replicate 1: 4.10e6
Naa15-16 [DRSC22846] | mean viability with MMS: 3.58e6; viability with MMS, replicate 1: 4.04e6
bves [DRSC20520] | mean viability with MMS: 3.49e6; viability with MMS, replicate 1: 3.94e6

Further entries follow:
Scr [DRSC12604] | mean viability with MMS: 2.98e6; viability with MMS, replicate 1: 3.61e6
Scr [DRSC23141] | mean viability with MMS: 3.62e6; viability with MMS, replicate 1: 4.22e6
CG31176 [DRSC15038] | mean viability with MMS: 3.62e6; viability with MMS, replicate 1: 4.07e6
CG31176 [DRSC16021] | mean viability with MMS: 3.73e6; viability with MMS, replicate 1: 4.33e6
Ccm3 [DRSC15711] | mean viability with MMS: 3.56e6; viability with MMS, replicate 1: 3.90e6
t-cup [DRSC01254] | mean viability with MMS: 3.35e6; viability with MMS, replicate 1: 3.67e6
l(2)k05819 [DRSC00826] | mean viability with MMS: 3.60e6; viability with MMS, replicate 1: 4.08e6
CG13398 [DRSC02268] | mean viability with MMS: 3.61e6; viability with MMS, replicate 1: 4.07e6
slou [DRSC17058] | mean viability with MMS: 3.64e6; viability with MMS, replicate 1: 4.10e6
Tom20 [DRSC10899] | mean viability with MMS: 3.74e6; viability with MMS, replicate 1: 4.22e6
CG14722 [DRSC14944] | mean viability with MMS: 3.56e6; viability with MMS, replicate 1: 4.05e6
CG9259 [DRSC03174] | mean viability with MMS: 3.49e6; viability with MMS, replicate 1: 3.98e6
Rnf11 [DRSC21574] | mean viability with MMS: 3.59e6; viability with MMS, replicate 1: 4.08e6
CG14054 [DRSC17909] | mean viability with MMS: 3.52e6; viability with MMS, replicate 1: 4.13e6
Cht4 [DRSC04603] | mean viability with MMS: 3.38e6; viability with MMS, replicate 1: 3.81e6
CG10486 [DRSC09735] | mean viability with MMS: 3.43e6; viability with MMS, replicate 1: 4.11e6
CG33757 [DRSC05159] | mean viability with MMS: 3.49e6; viability with MMS, replicate 1: 3.98e6
CG9328 [DRSC03203] | mean viability with MMS: 3.10e6; viability with MMS, replicate 1: 3.46e6
Uba3 [DRSC06377] | mean viability with MMS: 3.65e6; viability with MMS, replicate 1: 4.10e6
Cubn [DRSC18256] | mean viability with MMS: 3.52e6; viability with MMS, replicate 1: 4.01e6
CG5388 [DRSC15789] | mean viability with MMS: 3.50e6; viability with MMS, replicate 1: 3.90e6
MnM [DRSC08423] | mean viability with MMS: 3.51e6; viability with MMS, replicate 1: 3.93e6
CG10512 [DRSC11615] | mean viability with MMS: 3.58e6; viability with MMS, replicate 1: 4.07e6
AANATL7 [DRSC18616] | mean viability with MMS: 3.51e6; viability with MMS, replicate 1: 4.03e6
